Measurements published in patent US7544497B2, “Compositions for manipulating the lifespan and stress response of cells and organisms” (President and Fellows of Harvard College, priority 2003, dated 2009).
At least one compound was matched to its structure with a doubt left.

Biological target: T1, recombinant human SIRT1 (Homo sapiens, UniProt Q96EB6)
T1 sequence (Q96EB6 1-747): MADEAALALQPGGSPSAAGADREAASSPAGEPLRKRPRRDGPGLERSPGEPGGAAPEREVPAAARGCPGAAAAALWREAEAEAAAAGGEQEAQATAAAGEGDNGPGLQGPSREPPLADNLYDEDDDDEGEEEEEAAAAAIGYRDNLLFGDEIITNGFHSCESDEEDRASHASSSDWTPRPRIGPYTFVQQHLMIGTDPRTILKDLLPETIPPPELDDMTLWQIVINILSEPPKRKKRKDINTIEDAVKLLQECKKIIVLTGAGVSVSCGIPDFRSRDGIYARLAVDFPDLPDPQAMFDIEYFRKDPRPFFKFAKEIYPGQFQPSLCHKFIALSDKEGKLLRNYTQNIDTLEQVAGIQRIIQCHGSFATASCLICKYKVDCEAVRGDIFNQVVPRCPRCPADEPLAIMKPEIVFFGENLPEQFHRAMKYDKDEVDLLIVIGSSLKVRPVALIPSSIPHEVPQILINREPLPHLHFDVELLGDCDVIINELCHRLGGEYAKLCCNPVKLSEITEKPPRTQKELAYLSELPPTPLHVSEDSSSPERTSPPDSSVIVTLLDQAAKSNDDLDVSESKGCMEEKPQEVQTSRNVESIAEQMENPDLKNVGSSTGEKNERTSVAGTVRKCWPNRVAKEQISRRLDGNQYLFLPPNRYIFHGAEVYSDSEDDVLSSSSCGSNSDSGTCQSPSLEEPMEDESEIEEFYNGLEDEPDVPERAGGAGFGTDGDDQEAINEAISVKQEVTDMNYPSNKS
Assay: SIRT1 fluorescent deacetylation assay (p53-382 acetylated peptide substrate)
Assay type: biochemical
Conditions: 25 μM NAD+, 25 μM p53-382 acetylated peptide
From the text: To identify compounds that modulate SIRT1 activity, we screened a number of small molecule libraries using a fluorescent deacetylation assay in 96-well plates^26. The substrate used in the assay was a fluorogenic peptide based on the sequence encompassing the p53-K382 acetylation site, a known target of SIRT1 in vivo^20,21,27. This substrate was preferred over a variety of other fluorogenic peptide substrates that were based on other known HDAC targets (FIG. 5). The small molecule libraries included analogues of nicotinamide, ε-acetyl lysine, NAD^+, nucleotides, nucleotide analogues and purinergic ligands. From the initial screen, several sirtuin inhibitors were found (Supplementary Table 7). […]
Themed compound libraries (BIOMOL) were used for primary and secondary screening. […] HeLa cells were grown and the cellular deacetylation assays were performed and read, as above, but in full-volume 96-well microplates (Corning Costar 3595). […] Calculation of net fluorescence increases included subtraction of a blank value, which in the case of Sir2 was obtained by omitting the enzyme from the reaction and in the case of SIRT1 by adding an inhibitor (200 μM suramin or 1 mM nicotinamide) to the reaction prior to the acetylated substrate. […]

Oc1ccc(CCc2cc(O)cc(O)c2)cc1 [Dihydroresveratrol]
SIRT1 stimulating activity (in words): essentially abolishes activity
